Structures can show the parent of a compound that is named as a salt. ± gives the standard deviation of the averaged measurements. Some of the results follow. The data scatter; read single values as rough.
How the values were obtained:
hAMSC donor 1 [1] = assay: Hoechst total cell count ratio vs vehicle control; higher = more cells (less toxicity)
hAMSC donor 2 [2] = assay: as above
hAMSC donor 1 [3] = assay: transgenic luciferase activity (RLU/mg protein) fold change vs vehicle control (ratio); higher = more transgene expression
hAMSC donor 2 [4] = assay: as above
hAMSC donor 1 [5] = assay: transfection efficiency (EGFP+ cells / Hoechst count) fold change vs vehicle control (ratio); hAMSC are human adipose-derived mesenchymal stem cells given an EGFP-luciferase plasmid by lipofection; higher = enhanced transfection
hAMSC donor 2 [6] = assay: as above
[7] = priming compound concentration 0.2 µM
[8] = priming compound concentration 1.7 µM
[9] = priming compound concentration 13 µM

Row | Structure (SMILES) | Hoechst total cell count ratio (hAMSC donor 1 [1]; [7]) | Hoechst total cell count ratio (hAMSC donor 1 [1]; [8]) | Hoechst total cell count ratio (hAMSC donor 1 [1]; [9]) | Hoechst total cell count ratio (hAMSC donor 2 [2]; [7]) | Hoechst total cell count ratio (hAMSC donor 2 [2]; [8]) | Hoechst total cell count ratio (hAMSC donor 2 [2]; [9]) | transgenic luciferase activity (hAMSC donor 1 [3]; [7]) | transgenic luciferase activity (hAMSC donor 1 [3]; [8]) | transgenic luciferase activity (hAMSC donor 1 [3]; [9]) | transgenic luciferase activity (hAMSC donor 2 [4]; [9]) | transfection efficiency (hAMSC donor 1 [5]; [7]) | transfection efficiency (hAMSC donor 1 [5]; [8]) | transfection efficiency (hAMSC donor 1 [5]; [9]) | transfection efficiency (hAMSC donor 2 [6]; [7]) | transfection efficiency (hAMSC donor 2 [6]; [8]) | transfection efficiency (hAMSC donor 2 [6]; [9]) | transgenic luciferase activity (hAMSC donor 2 [4]; [7]) | transgenic luciferase activity (hAMSC donor 2 [4]; [8])
1 | CCCCC1=NC2(CCCC2)C(=O)N1Cc1ccc(-c2ccccc2-c2nnn[nH]2)cc1 [Irbesartan] | 1.33 ± 0.3 | 1.21 ± 0.14 | 1.235 ± 0.0083 | 1.17 ± 0.28 | 0.954 ± 0.07 | 1.52 ± 0.14 | 0.6 ± 0.27 | 0.831 ± 0.23 | 2.08 ± 1.8 | 1.69 ± 0.77 | 0.871 ± 0.18 | 1.01 ± 0.13 | 1.08 ± 0.25 | 0.986 ± 0.4 | 1.24 ± 0.18 | 1.75 ± 0.19 |  | 
2 | COc1cccc2c1C(=O)c1c(O)c3c(c(O)c1C2=O)C[C@@](O)(C(=O)CO)C[C@@H]3O[C@H]1C[C@H](N)[C@@H](O)[C@H](C)O1 [Epirubicin hydrochloride] | 0.674 ± 0.047 | 0.21 ± 0.042 | 0.107 ± 0.016 | 0.562 ± 0.058 | 0.139 ± 0.057 | 0.079 ± 0.011 | 1.38 ± 0.48 | 1.01 ± 0.58 | 0.25 ± 0.23 | 0.00034 ± 0.00038 | 1.69 ± 0.41 | 3 ± 0.55 | 0.257 ± 0.22 | 1.49 ± 0.25 | 2.69 ± 0.1 | 0.245 ± 0.11 | 1.28 ± 0.3 | 1.98 ± 1.3
3 | CCC(C)n1ncn(-c2ccc(N3CCN(c4ccc(OCC5COC(Cn6cncn6)(c6ccc(Cl)cc6Cl)O5)cc4)CC3)cc2)c1=O (stereo not given) [Itraconazole] | 1.41 ± 0.22 | 1.18 ± 0.17 | 0.91 ± 0.037 | 1.02 ± 0.19 | 1.69 ± 0.066 | 0.81 ± 0.12 |  | 0.594 ± 0.33 | 0.183 ± 0.12 | 0.318 ± 0.14 | 0.946 ± 0.16 | 1.27 ± 0.11 | 2.3 ± 0.4 | 0.839 ± 0.13 | 0.708 ± 0.021 | 0.708 ± 0.2 | 0.515 ± 0.033 | 0.614 ± 0.046
4 | COc1ccc2cc([C@H](C)C(=O)O)ccc2c1 [Naproxen sodium] | 1.21 ± 0.04 | 1.31 ± 0.12 | 1.13 ± 0.032 | 1.06 ± 0.18 | 0.612 ± 0.019 | 0.962 ± 0.1 | 0.558 ± 0.54 | 0.329 ± 0.2 | 1.1 ± 0.63 | 1.24 ± 0.37 | 0.965 ± 0.12 | 0.885 ± 0.12 | 1.1 ± 0.14 | 1.15 ± 0.26 | 1.39 ± 0.28 | 1.53 ± 0.14 |  | 
5 | O=C(O)COCCN1CCN([C@H](c2ccccc2)c2ccc(Cl)cc2)CC1 [Levocetirizine] | 1.55 ± 0.13 | 1.18 ± 0.054 | 1.08 ± 0.14 | 1.26 ± 0.36 | 0.637 ± 0.069 | 1.11 ± 0.07 | 0.567 ± 0.19 | 0.725 ± 0.36 | 0.42 ± 0.055 | 1.3 ± 0.61 | 0.983 ± 0.31 | 1.48 ± 0.098 | 0.996 ± 0.23 | 1.04 ± 0.23 | 1.9 ± 0.37 | 1.44 ± 0.52 |  | 
6 | OCCN1CCN(CCCN2c3ccccc3Sc3ccc(Cl)cc32)CC1 [Perphenazine] | 1.33 ± 0.18 | 1.22 ± 0.099 | 1.29 ± 0.033 | 0.98 ± 0.28 | 0.771 ± 0.043 | 1.35 ± 0.26 | 0.896 ± 0.23 | 0.907 ± 0.098 | 0.36 ± 0.02 | 1.13 ± 0.23 | 1.28 ± 0.075 | 1.12 ± 0.49 | 0.554 ± 0.021 | 1.25 ± 0.36 | 1.64 ± 0.08 | 1.08 ± 0.49 |  | 
7 | CCOC(=O)[C@H](CCc1ccccc1)N[C@@H](C)C(=O)N1Cc2ccccc2C[C@H]1C(=O)O [Quinapril hydrochloride] | 1.35 ± 0.17 | 1.13 ± 0.063 | 1.12 ± 0.13 | 1.06 ± 0.21 | 0.649 ± 0.049 | 1.23 ± 0.11 | 0.713 ± 0.21 | 1.35 ± 0.38 | 0.726 ± 0.49 | 0.816 ± 0.37 | 1.05 ± 0.068 | 1.17 ± 0.054 | 0.757 ± 0.17 | 1.06 ± 0.4 | 1.42 ± 0.25 | 1.4 ± 0.39 |  | 
